Among the data in article PMC11376533 are binding values, retold here.

Sequences of proteins named here, by UniProt entry; tags and fusion partners are left off. A change or cut given only in a name is not applied to a line headed by its entry. A line that says so, or that is headed by a name, gives the form on record, which may keep a tag or linker.
Δ9N_FGF2 D28E/C78I/C96I/S137P (P09038-2, form named): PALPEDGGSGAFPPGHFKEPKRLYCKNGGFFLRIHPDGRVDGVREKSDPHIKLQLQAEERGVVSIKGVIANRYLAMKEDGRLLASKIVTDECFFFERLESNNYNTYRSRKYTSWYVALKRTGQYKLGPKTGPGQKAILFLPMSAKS
Δ9N_FGF2 D28E/C78L/C96I/S137P (P09038-2, form named): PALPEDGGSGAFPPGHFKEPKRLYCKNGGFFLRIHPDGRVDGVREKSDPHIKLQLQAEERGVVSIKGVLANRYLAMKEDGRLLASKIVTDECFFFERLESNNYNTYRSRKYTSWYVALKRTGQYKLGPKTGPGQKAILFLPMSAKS

No constants are given. Whether binding was seen depends on the method and setting.

Assay [1] concerns the target Δ9N_FGF2 D28E/C78I/C96I/S137P (human) (UniProt P09038). The experiment in a line: SDS-PAGE; 0.5 mg/mL protein in 1X PBS pH 7.4, incubated at 45 °C for 7 days, soluble fraction after centrifugation on 15% SDS-PAGE; self-association (oligomers through intermolecular disulfide bonds); both purified.
The target of assay [2] is Δ9N_FGF2 D28E/C78L/C96I/S137P (human) (UniProt P09038). The assay is described as above.

For the substance “Δ9N_FGF2 D28E/C78I/C96I/S137P (from UniProt P09038-2 10-155) (ligand)”, the binding entry in assay [1] is listed as “no binding (tested: 0.5 mg/mL)”.

For the substance “Δ9N_FGF2 D28E/C78L/C96I/S137P (from UniProt P09038-2 10-155) (ligand)”, the binding entry in assay [2] was “no binding (tested: 0.5 mg/mL)”.
